Measurements from PubChem BioAssay AID1259354 (Paczesny and Yang Labs, IUPUI and University of Michigan, 2018).
Values joined by “and” are separate entries in the source; they are usually repeats but may differ in a detail not shown here. Equal values may be shown once. In all, about 78,000 compounds went through this assay and about 1,800 (2.3%) were called active. The inconclusive results got no clear call from the source; some entries with a clear call stand among them for comparison. No stated cut-off is given here; in the data, active means inhibition above about 30%; inconclusive means mostly about 10% to 28%; inactive means weaker than that.

The chains behind the UniProt entries cited, without tags or fusion partners. Where a name states a change or a piece, a line headed by the entry shows the natural chain unless it says otherwise.
UniProt Q01638: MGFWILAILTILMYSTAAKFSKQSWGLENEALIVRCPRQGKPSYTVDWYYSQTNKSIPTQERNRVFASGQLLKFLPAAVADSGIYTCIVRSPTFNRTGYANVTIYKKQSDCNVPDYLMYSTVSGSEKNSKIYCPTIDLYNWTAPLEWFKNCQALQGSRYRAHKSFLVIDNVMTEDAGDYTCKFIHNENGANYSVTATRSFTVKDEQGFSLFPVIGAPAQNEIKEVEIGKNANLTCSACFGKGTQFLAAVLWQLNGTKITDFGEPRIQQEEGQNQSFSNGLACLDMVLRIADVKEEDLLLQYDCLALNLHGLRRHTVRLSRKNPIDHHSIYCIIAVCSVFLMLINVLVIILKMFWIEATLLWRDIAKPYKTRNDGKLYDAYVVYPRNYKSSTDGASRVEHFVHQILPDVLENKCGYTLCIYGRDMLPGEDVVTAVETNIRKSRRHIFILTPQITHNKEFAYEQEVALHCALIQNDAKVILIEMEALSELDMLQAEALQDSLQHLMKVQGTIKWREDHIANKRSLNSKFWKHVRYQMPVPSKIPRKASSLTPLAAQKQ

What follows are molecules tested against Interleukin-1 receptor-like 1 (Homo sapiens) (UniProt Q01638) (assay: blocks human ST2 binding to IL-33, primary screen, biochemical, AlphaLISA (AID 1259354)). Conditions: AlphaLISA ST2-Fc/biotin-IL-33 interaction, 1 h; at 17 µM, hits give high values.

Q: How did the inhibition turn out when `COc1ccc(CNC(=O)C2CCCN2c2nnc(N3CCCC3=O)s2)cc1OC` (stereo not given) was run?
A: The inhibition was “inactive”.

Q: `COc1cc(Nc2c3c(nc4ccccc24)CCC3)cc(OC)c1OC` was tested. Which inhibition did it give?
A: Its inhibition is inconclusive: 11%.

Q: Which inhibition does the source give for `Cc1ccc(-c2cc(C(F)(F)F)c(C#N)c(SCC(=O)O)n2)cc1` here?
A: Its inhibition is inconclusive: 13%.

Q: Which inhibition does the source give for `CCC1Sc2ccccc2N(CC(=O)O)C1=O` (stereo not given) here?
A: Its inhibition is “inactive”.

Q: For `O=C(O)c1ccc(NC(=O)c2nccnc2C(=O)O)cc1`, which inhibition is on record?
A: Its inhibition is “inactive”.

Q: Which inhibition does the source give for `CS(=O)(=O)Nc1cc(-c2noc([C@@H]3CCCN3Cc3cccnc3)n2)ccn1` here?
A: Its inhibition is inconclusive: 11%.

Q: With `CC(C)(C)c1ccc(C(=O)Nc2nnc(-c3ccco3)s2)cc1` as the molecule, how does the inhibition read?
A: Its inhibition is “inactive”.

Q: `O=C1OC(c2ccc(Oc3ccccc3)cc2)=C/C1=C\c1ccco1` was tested. Which inhibition did it give?
A: The inhibition was active: 54%.

Q: Which inhibition does the source give for `COc1cccc(N=Cc2c(C)[nH]n(-c3ccccc3)c2=O)c1` here?
A: Its inhibition is inconclusive: 13%.

Q: With `COc1ccc(-n2ncc3c(Nc4ccc(Br)cc4)ncnc32)cc1` as the molecule, how does the inhibition read?
A: The inhibition was “inactive”.

Q: How did the inhibition turn out when `COc1ccc2cc(C3CN(Cc4nnc(C)s4)CCO3)ccc2c1` (stereo not given) was run?
A: Its inhibition is inconclusive: 11%.

Q: For `O=C(c1ccccc1-c1nn[nH]n1)N1CCOC(Cc2cccc(F)c2)C1` (stereo not given), which inhibition is on record?
A: The inhibition was “inactive”.

Q: For `CCC(=O)N1N=C2c3cc(OC)ccc3CCC2C1c1cccc([N+](=O)[O-])c1` (stereo not given), which inhibition is on record?
A: The inhibition was inconclusive: 27%.

Q: Which inhibition does the source give for `COc1ccc(Oc2coc3c(CN4CCCCCC4)c(O)ccc3c2=O)cc1` here?
A: The inhibition was inconclusive: 16%.

Q: How did the inhibition turn out when `CC(=O)Nc1ccsc1C(=O)N(C)C1Cc2ccccc2C1` was run?
A: The inhibition was inconclusive: 22%.

Q: `O=C1CCCCN1CCC(=O)N1CCOC(CCc2ccccc2)C1` (stereo not given) was tested. Which inhibition did it give?
A: The inhibition was inconclusive: 11%.

Q: Which inhibition does the source give for `Cc1cc(C)c(C(=O)ONc2ccc(N=O)cc2)c(C)c1` here?
A: The inhibition was inconclusive: 26%.

Q: With `CC(C)(C)[C@]1(O)CCN2C[C@H]3c4ccccc4CCc4cccc(c43)[C@@H]2C1` as the molecule, how does the inhibition read?
A: The inhibition was inconclusive: 16%.

Q: With `O=C(Nc1nc2ccc(Br)cc2s1)c1ccc(F)cc1` as the molecule, how does the inhibition read?
A: The inhibition was “inactive”.

Q: With `CCCCOc1ccc(CN2CCN(CCOCCO)CC2)cc1` as the molecule, how does the inhibition read?
A: The inhibition was inconclusive: 15%.

Q: For `COc1ccc(S(=O)(=O)CCc2nnc(N)s2)cc1`, which inhibition is on record?
A: The inhibition was “inactive”.

Q: How did the inhibition turn out when `CC(C)Cn1cc(C(=O)NCc2cccnc2)c2c3ccccc3n(C)c2c1=O` was run?
A: The inhibition was “inactive”.

Q: For `COc1cc(/C=C/C(=O)NCCc2ccc(O)cc2)ccc1O`, which inhibition is on record?
A: The inhibition was inconclusive: 15%.

Q: With `CCOC(=O)C1=NN(c2ccc(Br)cc2)C2C(=O)N(c3ccc(Cl)cc3)C(=O)C12` (stereo not given) as the molecule, how does the inhibition read?
A: The inhibition was inconclusive: 15%.

Q: For `CCOc1ccc(N2C(=O)Nc3cc(Cl)c(Cl)cc3N2O)c([N+](=O)[O-])c1`, which inhibition is on record?
A: The inhibition was inconclusive: 29%.

Q: Which inhibition does the source give for `O=C(CS(=O)(=O)c1cn(Cc2ccccc2Cl)c2ccccc12)NC1CCCCC1` here?
A: The inhibition was active: 32%.

Q: `COc1ccc2c(c1)C1=NN(C(C)=O)C(c3ccc([N+](=O)[O-])cc3)C1CC2` (stereo not given) was tested. Which inhibition did it give?
A: Its inhibition is “inactive”.

Q: `Cc1cc(C)n(CCCNC(=O)c2oc3c(C)c(C)ccc3c2C)n1` was tested. Which inhibition did it give?
A: The inhibition was inconclusive: 14%.

Q: With `CCN1C(=O)C2CCCCN2c2ccc(C(=O)NCc3ccccc3)cc21` (stereo not given) as the molecule, how does the inhibition read?
A: The inhibition was inconclusive: 12%.

Q: With `CCN(C)c1ccc(/C=C2/C(=O)NN(c3ccc(Cl)c(Cl)c3)C2=O)cc1` as the molecule, how does the inhibition read?
A: The inhibition was “inactive”.

Q: Which inhibition does the source give for `COc1ccc(C2=C(CN(C)C)C(c3ccccc3)c3ccccc3O2)cc1` (stereo not given) here?
A: The inhibition was inconclusive: 16%.

Q: How did the inhibition turn out when `O=C(Cn1cc(C(F)(F)F)ccc1=O)N1C[C@@H]2[C@@H]3CC[C@@H](C3)[C@@H]2C1` was run?
A: The inhibition was inconclusive: 21%.

Q: With `Brc1ccc(CNc2cc3c(cc2Br)OCCO3)cc1` as the molecule, how does the inhibition read?
A: Its inhibition is inconclusive: 17%.

Q: For `CN1[C@@H]2CC[C@H]1CC(OC(=O)C(CO)c1ccccc1)C2` (stereo not given in full), which inhibition is on record?
A: The inhibition was inconclusive: 13%.

Q: For `O=C(Cc1cccc(F)c1)NCCn1c(-c2ccccc2)nc2cccnc21`, which inhibition is on record?
A: Its inhibition is inconclusive: 15%.

Q: With `COc1ccc2nc(N3CCCC(C(=O)NC4CC4)C3)sc2c1` (stereo not given) as the molecule, how does the inhibition read?
A: The inhibition was “inactive”.

Q: How did the inhibition turn out when `N#CSc1ccc(NC2(c3ccccc3)C(=O)c3ccccc3C2=O)cc1` was run?
A: The inhibition was active: 34%.

Q: How did the inhibition turn out when `Cc1ccccc1CC1(CO)CCCN(C(=O)CN2CCOc3ccccc3C2)C1` (stereo not given) was run?
A: The inhibition was inconclusive: 18%.

Q: For `Cc1ccc(C(=O)N2CC[C@@H](c3ccc4ccccc4c3)[C@H](O)C2)c(=O)n1C`, which inhibition is on record?
A: The inhibition was inconclusive: 23%.

Q: How did the inhibition turn out when `COc1ccc(NC(=O)CCC2CCCN(S(=O)(=O)N(C)C)C2)c(C)c1` (stereo not given) was run?
A: Its inhibition is “inactive”.

Q: With `CCn1cc(Cl)c(C(=O)N2CCC(Cc3nnc(SC)n3C)CC2)n1` as the molecule, how does the inhibition read?
A: Its inhibition is inconclusive: 11%.

Q: Which inhibition does the source give for `Cc1ccc(CCN2CC(C(=O)NC3CCC(C)CC3)CC2=O)cc1` (stereo not given) here?
A: The inhibition was inconclusive: 11%.

Q: `Cc1cc(C)n2c(Br)c(CSc3nc4ccccc4[nH]3)nc2n1` was tested. Which inhibition did it give?
A: Its inhibition is “inactive”.

Q: For `COc1ccc(-c2ncnn2-c2cccc(Cl)c2C)cc1OC`, which inhibition is on record?
A: Its inhibition is inconclusive: 20%.

Q: Which inhibition does the source give for `CC(C)Cc1nc(CCN2CCCO2)n(-c2ccc(F)cc2)n1` here?
A: The inhibition was “inactive”.

Q: For `CCCCC(CC)CNC(=O)CCCCCN1C(=O)c2ccccc2C1=O` (stereo not given), which inhibition is on record?
A: Its inhibition is inconclusive: 17%.

Q: With `COc1ccc(C(=O)NC[C@H]2O[C@@H](CO)[C@@H](O)[C@H]2N2CCC(C)CC2)cc1` as the molecule, how does the inhibition read?
A: Its inhibition is inconclusive: 14%.

Q: With `Cc1ccc2nc(OCc3ccccc3Cl)c(CNCc3cnn(C)c3)cc2c1` as the molecule, how does the inhibition read?
A: The inhibition was inconclusive: 19%.

Q: `Cc1ccc(Cl)cc1NS(=O)(=O)c1cccc2nonc12` was tested. Which inhibition did it give?
A: Its inhibition is “inactive”.

Q: How did the inhibition turn out when `O=C(NC1CCCCC1)C1CCN(c2ccc(-c3cccs3)nn2)CC1` was run?
A: Its inhibition is “inactive”.

Q: With `CCn1nc(-c2cc(N)nc3[nH]ccc23)nc1N(C)C` as the molecule, how does the inhibition read?
A: The inhibition was inconclusive: 10%.

Q: For `CN(C)CCNC(=O)C[C@@H]1O[C@H](CNC(=O)c2ccccc2)[C@@H](O)[C@H]1O`, which inhibition is on record?
A: The inhibition was inconclusive: 16%.

Q: For `CCn1cc(CN2CCCC(CCC(=O)N3CCN(Cc4ccccc4)CC3)C2)c(C)n1` (stereo not given), which inhibition is on record?
A: Its inhibition is inconclusive: 10%.

Q: How did the inhibition turn out when `OC1C(c2ccccc2)CCC(c2ccccc2)C1O` (stereo not given) was run?
A: The inhibition was inconclusive: 16% and inconclusive: 14%.

Q: How did the inhibition turn out when `COc1cc(NC(=O)C2CCN(c3ccc(-c4cccs4)nn3)CC2)cc(OC)c1` was run?
A: The inhibition was inconclusive: 27%.

Q: With `O=c1[nH]c(Nc2ccc(Cl)cc2)nnc1Cc1ccc(Cl)cc1` as the molecule, how does the inhibition read?
A: The inhibition was “inactive”.

Q: How did the inhibition turn out when `O=[N+]([O-])c1ccc(-n2nnc3ccccc32)c([N+](=O)[O-])c1` was run?
A: Its inhibition is inconclusive: 21%.

Q: Which inhibition does the source give for `CN1C[C@@H](NC(=O)NC2CCCCC2)C[C@H]1c1nc(-c2ccc(F)cc2)no1` here?
A: The inhibition was inconclusive: 11%.

Q: `O=C1c2ccccc2C(=O)N1Cc1nc2ccc(I)cc2c(=O)o1` was tested. Which inhibition did it give?
A: The inhibition was inconclusive: 17%.

Q: How did the inhibition turn out when `CCn1cnc2cc(NCc3ccccc3O)ccc21` was run?
A: The inhibition was inconclusive: 12%.
